According to PubChem BioAssay AID300 (DTP/NCI, 2004):
The list shows only some results of the screen, not a fair sample: it gathers tests that were run many times, whatever their T/C, doses with no T/C, and many T/C values between a quarter and a half above the control. Further doses and runs are listed elsewhere. T/C is the treated group as % of the vehicle group. Some entries give survivors of the animals treated and no T/C: the source files T/C as zero there, which appears to mark a toxic dose or a test without result, not a measured value. Some doses without a T/C left all or most animals alive at the check, yet need not have been tolerated: the source hardly ever lists a survival T/C far under the control, and the zero likely stands for such cases as well. Survivors were counted at the toxicity check, usually on the fifth day, unless a day is given; later deaths do not show. Schedule codes are those of the source, read here as Q, the interval in days (D) or hours (H), X, the number of doses. Some schedules carry Z or #; the key to these is not given. For survival time, this PubChem deposit counts one and a half times the control or more as active, and values a quarter to a half above the control carry no call in these data; other NCI protocols may use other cut-offs.

Tested on: Madison 109 lung carcinoma i.m., mice, median survival
Experiment: NCI In Vivo Anticancer Drug Screen. Data for tumor model Madison 109 Lung Carcinoma (intramuscular) in unknown mice
Conditions: T/C endpoint: median survival time, higher T/C = longer survival
Experimental: The antitumor activity of compounds was measured in mice bearing transplantable tumors. Survival or tumor size were measured and the results are expressed as the measurement made in the treated group (T) divided by the measurement made in the vehicle treated control group (C). The tumor model used in this assay is Madison 109 Lung Carcinoma (intramuscular) in unknown mice

With `CO[C@H]1/C=C/O[C@@]2(C)Oc3c(C)c(O)c4c(O)c(c(/C=N/N5C(C)CN(Cc6ccccc6)CC5C)c(O)c4c3C2=O)NC(=O)/C(C)=C\C=C\[C@H](C)[C@H](O)[C@@H](C)[C@@H](O)[C@@H](C)[C@H](OC(C)=O)[C@@H]1C` (stereo not given in full) the survivor count (dose: 8.0 mg/kg/injection, schedule: Q03HX024 (ip), vehicle: saline) was 8 of 8, the survivor count (dose: 32.0 mg/kg/injection, schedule: Q03HX024 (ip), vehicle: saline) was 8 of 8 and the survivor count (dose: 64.0 mg/kg/injection, schedule: Q02DX Z (ip), vehicle: saline) was 8 of 8. For the same compound, the survivor count (dose: 64.0 mg/kg/injection, schedule: Q03HX024 (ip), vehicle: saline) was 6 of 8, the survivor count (dose: 128.0 mg/kg/injection, schedule: Q01DX009 (ip), vehicle: saline) was 7 of 8 and the survivor count (dose: 128.0 mg/kg/injection, schedule: Q02DX Z (ip), vehicle: saline) was 8 of 8. For the same compound, the survivor count (dose: 128.0 mg/kg/injection, schedule: Q03HX008 (ip), vehicle: saline) was 5 of 8, the survivor count (dose: 256.0 mg/kg/injection, schedule: Q01DX009 (ip), vehicle: saline) was 1 of 8 and the survivor count (dose: 256.0 mg/kg/injection, schedule: Q02DX Z (ip), vehicle: saline) was 8 of 8. For the same compound, the survivor count (dose: 256.0 mg/kg/injection, schedule: Q04DX003 (ip), vehicle: saline) was 8 of 8, the survivor count (dose: 512.0 mg/kg/injection, schedule: Q01DX001 (ip), vehicle: saline) was 8 of 8 and the survivor count (dose: 512.0 mg/kg/injection, schedule: Q01DX009 (ip), vehicle: saline) was 0 of 8. For the same compound, the survivor count (dose: 512.0 mg/kg/injection, schedule: Q02DX Z (ip), vehicle: saline) was 0 of 8, the survivor count (dose: 512.0 mg/kg/injection, schedule: Q04DX003 (ip), vehicle: saline) was 6 of 8 and the survivor count (dose: 1024.0 mg/kg/injection, schedule: Q01DX001 (ip), vehicle: saline) was 0 of 8.

With `COc1cccc2c1C(=O)c1c(O)c3c(c(O)c1C2=O)C[C@@](O)(C(C)=O)C[C@@H]3OC1CC(N)C(O)C(C)O1` (stereo not given in full) the T/C (dose: 0.25 mg/kg/injection, schedule: Q01DX009 (ip), vehicle: water, evaluated on day 5) was 135 % of control, the T/C (dose: 0.25 mg/kg/injection, schedule: Q01DX009 (ip), vehicle: water, evaluated on day 75) was 135 % of control and the T/C (dose: 0.5 mg/kg/injection, schedule: Q01DX009 (ip), vehicle: water, evaluated on day 5) was 132 % of control. For the same compound, the T/C (dose: 0.5 mg/kg/injection, schedule: Q01DX009 (ip), vehicle: water, evaluated on day 75) was 132 % of control, the T/C (dose: 0.75 mg/kg/injection, schedule: Q04DX003 (ip), vehicle: water) was 127 % of control and the survivor count (dose: 1.5 mg/kg/injection, schedule: Q01DX009 (ip), vehicle: water) was 6 of 6. The survivor count (dose: 2.5 mg/kg/injection, schedule: Q01DX009 (ip), vehicle: water) was 6 of 6.

With `CN(C)c1nc(N(C)C)nc(N(C)C)n1` the survivor count (dose: 80.0 mg/kg/injection, schedule: Q01DX009 (ip), vehicle: other) was 8 of 8 and the survivor count (dose: 160.0 mg/kg/injection, schedule: Q01DX009 (ip), vehicle: other) was 0 of 8.

`Cc1c(N)nc([C@H](CC(N)=O)NC[C@H](N)C(N)=O)nc1C(=O)N[C@H](C(=O)N[C@H](C)[C@@H](O)[C@H](C)C(=O)N[C@H](C(=O)NCCc1nc(-c2nc(C(=O)NCCC[S+](C)C)cs2)cs1)[C@@H](C)O)C(OC1OC(CO)C(O)C(O)C1OC1OC(CO)C(O)C(OC(N)=O)C1O)c1cnc[nH]1` (stereo not given in full) was tested, and the T/C (dose: 10.0 mg/kg/injection, schedule: Q04DX003 (ip), vehicle: saline) was 141 % of control.

For `CN(C)/N=N/c1nc[nH]c1C(N)=O`, the T/C (dose: 50.0 mg/kg/injection, schedule: Q01DX009 (ip), vehicle: Klucel (hydroxypropylcellulose) (HPC)) was 132 % of control, the T/C (dose: 100.0 mg/kg/injection, schedule: Q01DX009 (ip), vehicle: Klucel (hydroxypropylcellulose) (HPC)) was 140 % of control and the survivor count (dose: 400.0 mg/kg/injection, schedule: Q01DX009 (ip), vehicle: Klucel (hydroxypropylcellulose) (HPC)) was 8 of 8.

For `CC(=O)c1cccc(NC2C(N)C(NC(=O)N(C)C)(C(C)O)C(C)(O)C2(O)COC(=O)c2c(C)cccc2O)c1` (stereo not given), the survivor count (dose: 0.1 mg/kg/injection, schedule: Q01DX009 (ip), vehicle: other) was 8 of 8 and the T/C (dose: 1.2 mg/kg/injection, schedule: Q01DX009 (ip), vehicle: other) was 138 % of control.
